Data taken from ChEMBL document CHEMBL3988442, “University of Dundee, Small-Polar-MMV Screening Library” (2021).

Sequences of proteins named here, by UniProt entry; tags and fusion partners are left off. Residues count along the entry.
UniProt P9WPC5, whole entry: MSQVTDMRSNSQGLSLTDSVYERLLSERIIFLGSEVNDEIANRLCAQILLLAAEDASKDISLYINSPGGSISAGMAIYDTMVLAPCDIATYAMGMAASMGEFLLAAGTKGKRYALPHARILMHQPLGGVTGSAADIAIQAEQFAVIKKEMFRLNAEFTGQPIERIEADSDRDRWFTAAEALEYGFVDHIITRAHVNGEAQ
UniProt P9WPC3, whole entry partner: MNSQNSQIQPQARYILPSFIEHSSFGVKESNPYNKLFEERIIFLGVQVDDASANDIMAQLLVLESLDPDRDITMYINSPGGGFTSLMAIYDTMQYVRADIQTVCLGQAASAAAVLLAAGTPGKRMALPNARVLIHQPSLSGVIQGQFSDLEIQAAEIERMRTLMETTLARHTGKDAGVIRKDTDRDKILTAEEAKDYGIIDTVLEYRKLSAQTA
UniProt Q8IDJ8, 1-583: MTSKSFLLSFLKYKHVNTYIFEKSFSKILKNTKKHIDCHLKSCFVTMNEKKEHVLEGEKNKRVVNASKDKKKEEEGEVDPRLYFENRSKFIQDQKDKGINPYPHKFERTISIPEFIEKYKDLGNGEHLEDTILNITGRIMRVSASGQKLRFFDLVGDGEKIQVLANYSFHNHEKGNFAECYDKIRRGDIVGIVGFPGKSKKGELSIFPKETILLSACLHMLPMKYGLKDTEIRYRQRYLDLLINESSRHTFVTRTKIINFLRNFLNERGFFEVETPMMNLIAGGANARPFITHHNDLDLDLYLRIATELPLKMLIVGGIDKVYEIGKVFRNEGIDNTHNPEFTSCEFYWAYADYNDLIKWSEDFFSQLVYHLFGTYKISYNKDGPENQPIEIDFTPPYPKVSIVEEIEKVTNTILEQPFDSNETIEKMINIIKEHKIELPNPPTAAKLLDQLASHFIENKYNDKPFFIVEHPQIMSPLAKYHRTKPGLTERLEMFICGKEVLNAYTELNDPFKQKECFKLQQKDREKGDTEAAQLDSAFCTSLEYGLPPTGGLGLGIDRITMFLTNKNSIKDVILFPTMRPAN
UniProt P9WFT3, whole entry: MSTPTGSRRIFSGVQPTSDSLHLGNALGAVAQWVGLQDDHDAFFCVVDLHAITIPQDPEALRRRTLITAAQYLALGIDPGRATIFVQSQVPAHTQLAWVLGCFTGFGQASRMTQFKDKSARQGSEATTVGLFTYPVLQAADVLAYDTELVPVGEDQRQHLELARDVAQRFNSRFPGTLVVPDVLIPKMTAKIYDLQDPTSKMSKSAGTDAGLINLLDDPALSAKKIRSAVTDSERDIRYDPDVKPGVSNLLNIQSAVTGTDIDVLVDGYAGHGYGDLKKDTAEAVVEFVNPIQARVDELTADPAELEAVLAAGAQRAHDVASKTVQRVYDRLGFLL
UniProt A4I591, 1-473: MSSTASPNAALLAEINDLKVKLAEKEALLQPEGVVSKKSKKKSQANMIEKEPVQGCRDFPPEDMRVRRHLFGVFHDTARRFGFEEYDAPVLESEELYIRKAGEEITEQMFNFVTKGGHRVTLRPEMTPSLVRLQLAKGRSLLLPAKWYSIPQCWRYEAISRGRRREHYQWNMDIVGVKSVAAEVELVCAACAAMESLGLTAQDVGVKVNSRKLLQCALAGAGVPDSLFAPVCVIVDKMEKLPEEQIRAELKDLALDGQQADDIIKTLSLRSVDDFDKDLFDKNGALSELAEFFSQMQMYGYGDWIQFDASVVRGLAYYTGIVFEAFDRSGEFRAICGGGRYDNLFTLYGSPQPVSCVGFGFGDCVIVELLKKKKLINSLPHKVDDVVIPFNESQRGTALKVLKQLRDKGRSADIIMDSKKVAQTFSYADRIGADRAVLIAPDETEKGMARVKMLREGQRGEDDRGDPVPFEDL
UniProt Q4DA54, 1-478: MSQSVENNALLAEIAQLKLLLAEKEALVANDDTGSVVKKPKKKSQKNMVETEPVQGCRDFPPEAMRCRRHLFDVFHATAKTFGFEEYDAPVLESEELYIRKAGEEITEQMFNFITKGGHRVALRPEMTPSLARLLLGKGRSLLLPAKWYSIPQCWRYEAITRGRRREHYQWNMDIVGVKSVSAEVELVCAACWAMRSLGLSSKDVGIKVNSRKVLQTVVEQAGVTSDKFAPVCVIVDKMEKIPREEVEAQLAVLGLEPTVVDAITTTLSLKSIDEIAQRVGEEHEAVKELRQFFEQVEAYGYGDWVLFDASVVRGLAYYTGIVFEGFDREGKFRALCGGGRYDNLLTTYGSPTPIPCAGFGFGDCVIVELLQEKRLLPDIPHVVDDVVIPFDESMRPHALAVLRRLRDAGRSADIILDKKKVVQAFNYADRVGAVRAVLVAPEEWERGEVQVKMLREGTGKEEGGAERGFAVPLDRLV

ClpP1P2: 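Protease assay of ClpP1P2, read by the AMC dye that it sets free. Target: ClpP1P2, Mycobacterium tuberculosis (UniProt P9WPC5 and UniProt P9WPC3). Concentration: 50 µM. Direction is inferred from only a few compounds that gave an IC50; most scored high, so higher reads as stronger inhibition. Most other retested compounds had strongly negative values. Size under these conditions: about 69,000 compounds, about 10 of them at 50% or above in at least one test.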
PfKRS1: 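Lysine-tRNA ligase, Plasmodium falciparum 3D7 (UniProt Q8IDJ8). Enzyme assay of the cytosolic lysyl-tRNA synthetase in 384-well plates, read by luminescence. Compounds at 30 µM. Direction is inferred from only a few compounds that gave an IC50; most scored high, so higher reads as stronger inhibition. Of about 69,000 compounds tested this way, about 49 (0.071%) reached 50% or more in at least one test.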
MtTrpRS: 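Tryptophan-tRNA ligase, Mycobacterium tuberculosis (UniProt P9WFT3). Enzyme assay of tryptophanyl-tRNA synthetase; the read-out is not stated. Tested at 10 µM. Higher most likely means stronger inhibition; the record gives no direction and few retests gave an IC50. About 65,000 compounds were tested under these conditions; 0.098% (about 64) showed 50% or more at least once.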
LiHisRS: 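Enzyme assay of histidyl-tRNA synthetase; the read-out is not stated. Target: Histidine-tRNA ligase, Leishmania infantum (UniProt A4I591). Compounds at 30 µM. Higher reads as stronger inhibition (inferred: compounds with an IC50 in retests scored well above the rest). The assay is labelled LdHisRS but filed under L. infantum. Of about 69,000 compounds tested this way, about 410 (0.6%) reached 50% or more in at least one test.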
TcHisRS: 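Histidine-tRNA ligase, Trypanosoma cruzi CL Brener (UniProt Q4DA54). Enzyme assay of histidyl-tRNA synthetase; the read-out is not stated. Tested at 30 µM. Direction is inferred from retests: higher values go with stronger inhibition. Of about 69,000 compounds tested this way, about 31 (0.045%) reached 50% or more in at least one test.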
Leishmania in macrophages: 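Cell assay of Leishmania donovani living inside macrophages; the read-out is not stated. Concentration: 30 µM. The record gives no direction; compounds that gave an IC50 in retests scored well above the rest, so higher reads as stronger inhibition. Of about 69,000 compounds tested this way, about 1,000 (1.5%) reached 50% or more in at least one test.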

The filed quantity is “Percent Effect” (%). How 0% and 100% were set is not recorded. Most values in the screen are low, and negative values occur. Compounds were drawn at random from those tested, without regard to their results.

Cc1noc(CCCC(=O)N2CCN(C)CC2c2ccccc2)n1 (stereo not given) gave ClpP1P2: -2.752%; PfKRS1: 1.58%; MtTrpRS: 5.033%; LiHisRS: 13.19%; TcHisRS: 7.831%; Leishmania in macrophages: -2.987%.
COCCn1ccc(=O)c(OCC(=O)Nc2ccc(Br)cc2)c1C gave ClpP1P2: -15.08%; PfKRS1: 3.562%; MtTrpRS: 2.488%; LiHisRS: 22.83%; TcHisRS: 7.921%; Leishmania in macrophages: 8.472%.
CS(=O)(=O)N1CC2(CCCN(CC3CC3)C2)Cc2ccccc21 (stereo not given) gave ClpP1P2: 3.086%; PfKRS1: 5.462%; MtTrpRS: -8.384%; LiHisRS: 4.138%; TcHisRS: 7.692%; Leishmania in macrophages: 20.55%.
Cn1nnc2c1CCN(CC1CC1)C2COCc1ccccc1 (stereo not given) gave ClpP1P2: 10.09%; PfKRS1: 6.494%; MtTrpRS: -1.233%; LiHisRS: 16.79%; TcHisRS: 6.011%.
c1cc(CN2CCCn3cnc(COCC4CC4)c3C2)ccn1 gave ClpP1P2: -33.94%; PfKRS1: 2.348%; MtTrpRS: -1.022%; LiHisRS: 27.78%; TcHisRS: 3.483%.
Cc1nc(CN2CCOC(c3nc(C(C)C)n[nH]3)C2)oc1C (stereo not given) gave ClpP1P2: -0.7549%; PfKRS1: 1.055%; MtTrpRS: -2.754%; LiHisRS: 7.865%; TcHisRS: 4.511%; Leishmania in macrophages: -6.521%.
CCNC(=O)c1cnc(Sc2nccn2C)c(Cl)c1 gave ClpP1P2: -4.815%; PfKRS1: 3.535%; MtTrpRS: -5.094%; LiHisRS: 15.79%; TcHisRS: 5.028%; Leishmania in macrophages: 12.29%.
CC[C@H]1CN2CC[C@H]1C[C@@H]2CNC(=O)NC1CCCCC1 gave ClpP1P2: -0.9126%; PfKRS1: 6.984%; MtTrpRS: 5.045%; LiHisRS: 22.22%; TcHisRS: 14.85%.
COc1cccc(CC2(C(=O)O)CCN(c3nccs3)CC2)c1 gave ClpP1P2: -2.045%; PfKRS1: 9.775%; MtTrpRS: -0.7807%; LiHisRS: 22.58%; TcHisRS: 2.299%; Leishmania in macrophages: 14.76%.
Cc1c(Cl)cc(C(=O)NCCc2ncnn2C)cc1Cl gave ClpP1P2: -3.083%; PfKRS1: 2.446%; MtTrpRS: 5.47%; LiHisRS: 28.57%; TcHisRS: 3.896%; Leishmania in macrophages: 5.289%.
O=C(CN1CCOCC1CC(=O)c1ccco1)NCc1ccccn1 (stereo not given) gave ClpP1P2: -13.52%; PfKRS1: 4.826%; MtTrpRS: -2.726%; LiHisRS: -1.299%; TcHisRS: 5.419%; Leishmania in macrophages: 15.98%.
CCN1C(=O)CC(N(C)Cc2nc3ccccc3c(=O)[nH]2)C1=O (stereo not given) gave ClpP1P2: -1.911%; PfKRS1: 3.336%; MtTrpRS: -2.961%; LiHisRS: 8.219%; TcHisRS: 3.158%; Leishmania in macrophages: 5.708%.
CCCNS(=O)(=O)c1ccc(C(=O)NC(CC)c2cnn(C)c2)cc1 (stereo not given) gave ClpP1P2: -0.1899%; PfKRS1: 10.8%; MtTrpRS: -1.554%; LiHisRS: 6.579%; TcHisRS: 3.448%; Leishmania in macrophages: 12.4%.

The last 2 entries again:

{"compound": "CCN1C(=O)CC(N(C)Cc2nc3ccccc3c(=O)[nH]2)C1=O", "stereo": "stereo not given", "ClpP1P2": -1.911, "PfKRS1": 3.336, "MtTrpRS": -2.961, "LiHisRS": 8.219, "TcHisRS": 3.158, "Leishmania in macrophages": 5.708}
{"compound": "CCCNS(=O)(=O)c1ccc(C(=O)NC(CC)c2cnn(C)c2)cc1", "stereo": "stereo not given", "ClpP1P2": -0.1899, "PfKRS1": 10.8, "MtTrpRS": -1.554, "LiHisRS": 6.579, "TcHisRS": 3.448, "Leishmania in macrophages": 12.4}